Results reported in PMC4914304.
Results are given in words; binding and its absence hold for the method and conditions named. In cells and extracts the contact can be indirect. Some entries that bind do so weakly or less than the wild type. Sequences can lack the tags named with a protein.

By UniProt entry, the sequences of proteins in these tests, tags left out.
UniProt Q8NHY2: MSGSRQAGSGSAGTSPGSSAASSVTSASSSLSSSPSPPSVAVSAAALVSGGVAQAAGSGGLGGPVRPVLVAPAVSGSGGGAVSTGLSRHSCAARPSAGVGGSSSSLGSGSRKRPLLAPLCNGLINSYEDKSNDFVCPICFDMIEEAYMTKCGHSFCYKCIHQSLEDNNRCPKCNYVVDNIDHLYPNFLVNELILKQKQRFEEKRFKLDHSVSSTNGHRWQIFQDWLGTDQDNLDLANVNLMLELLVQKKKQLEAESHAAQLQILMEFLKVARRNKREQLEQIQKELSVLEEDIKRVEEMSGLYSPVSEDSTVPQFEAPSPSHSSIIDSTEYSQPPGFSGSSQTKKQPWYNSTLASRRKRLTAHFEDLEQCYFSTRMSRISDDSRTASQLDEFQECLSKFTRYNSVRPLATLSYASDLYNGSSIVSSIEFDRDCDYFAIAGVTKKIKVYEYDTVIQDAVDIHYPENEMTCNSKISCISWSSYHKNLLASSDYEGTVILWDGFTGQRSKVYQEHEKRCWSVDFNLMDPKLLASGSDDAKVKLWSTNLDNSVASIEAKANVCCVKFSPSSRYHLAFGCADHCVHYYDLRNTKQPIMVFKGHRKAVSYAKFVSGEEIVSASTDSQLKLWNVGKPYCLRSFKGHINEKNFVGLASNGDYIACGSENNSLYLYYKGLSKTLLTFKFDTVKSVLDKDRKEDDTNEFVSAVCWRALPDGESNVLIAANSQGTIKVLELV

target: Myc-COP1 (human) (UniProt Q8NHY2); test: co-IP; PC3 cells transfected 24 h with ETS2 (wild type or alanine mutants) and COP1; MG-132 for 6 h before harvest; IP with anti-COP1 antibodies; Western blot

Binder | binding
ETS2 S220A,S225A (protein, UniProt P15036 1-469) MNDFGIKNMDQVAPVANSYRGTLKRQPAFDTFDGSLFAVFPSLNEEQTLQEVPTGLDSISHDSANCELPLLTPCSKAVMSQALKATFSGFKKEQRRLGIPKNPWLWSEQQVCQWLLWATNEFSLVNVNLQRFGMNGQMLCNLGKERFLELAPDFVGDILWEHLEQMIKENQEKTEDQYEENSHLTSVPHWINSNTLGFGTEQAPYGMQTQNYPKGGLLDAMCPAATPSVLSSEQEFQMFPKSRLSSVSVTYCSVSQDFPGSNLNLLTNNSGTPKDHDSPENGADSFESSDSLLQSWNSQSSLLDVQRVPSFESFEDDCSQSLCLNKPTMSFKDYIQERSDPVEQGKPVIPAAVLAGFTGSGPIQLWQFLLELLSDKSCQSFISWTGDGWEFKLADPDEVARRWGKRKNKPKMNYEKLSRGLRYYYDKNIIHKTSGKRYVYRFVCDLQNLLGFTPEELHAILGVQPDTED | binds
ETS2 S220A,S225A,S248A (serine triple mutant) (protein, UniProt P15036 1-469) MNDFGIKNMDQVAPVANSYRGTLKRQPAFDTFDGSLFAVFPSLNEEQTLQEVPTGLDSISHDSANCELPLLTPCSKAVMSQALKATFSGFKKEQRRLGIPKNPWLWSEQQVCQWLLWATNEFSLVNVNLQRFGMNGQMLCNLGKERFLELAPDFVGDILWEHLEQMIKENQEKTEDQYEENSHLTSVPHWINSNTLGFGTEQAPYGMQTQNYPKGGLLDAMCPAATPSVLSSEQEFQMFPKSRLSSVAVTYCSVSQDFPGSNLNLLTNNSGTPKDHDSPENGADSFESSDSLLQSWNSQSSLLDVQRVPSFESFEDDCSQSLCLNKPTMSFKDYIQERSDPVEQGKPVIPAAVLAGFTGSGPIQLWQFLLELLSDKSCQSFISWTGDGWEFKLADPDEVARRWGKRKNKPKMNYEKLSRGLRYYYDKNIIHKTSGKRYVYRFVCDLQNLLGFTPEELHAILGVQPDTED | binds

Second part, the binder after the results:

binding | Binder
binds | Myc-ETS2 wild-type (protein, UniProt P15036 1-469) MNDFGIKNMDQVAPVANSYRGTLKRQPAFDTFDGSLFAVFPSLNEEQTLQEVPTGLDSISHDSANCELPLLTPCSKAVMSQALKATFSGFKKEQRRLGIPKNPWLWSEQQVCQWLLWATNEFSLVNVNLQRFGMNGQMLCNLGKERFLELAPDFVGDILWEHLEQMIKENQEKTEDQYEENSHLTSVPHWINSNTLGFGTEQAPYGMQTQNYPKGGLLDSMCPASTPSVLSSEQEFQMFPKSRLSSVSVTYCSVSQDFPGSNLNLLTNNSGTPKDHDSPENGADSFESSDSLLQSWNSQSSLLDVQRVPSFESFEDDCSQSLCLNKPTMSFKDYIQERSDPVEQGKPVIPAAVLAGFTGSGPIQLWQFLLELLSDKSCQSFISWTGDGWEFKLADPDEVARRWGKRKNKPKMNYEKLSRGLRYYYDKNIIHKTSGKRYVYRFVCDLQNLLGFTPEELHAILGVQPDTED
binds | ETS2 with serines 220, 225, 246, 248, 255 and 319 mutated to alanines (protein, UniProt P15036 1-469) MNDFGIKNMDQVAPVANSYRGTLKRQPAFDTFDGSLFAVFPSLNEEQTLQEVPTGLDSISHDSANCELPLLTPCSKAVMSQALKATFSGFKKEQRRLGIPKNPWLWSEQQVCQWLLWATNEFSLVNVNLQRFGMNGQMLCNLGKERFLELAPDFVGDILWEHLEQMIKENQEKTEDQYEENSHLTSVPHWINSNTLGFGTEQAPYGMQTQNYPKGGLLDAMCPAATPSVLSSEQEFQMFPKSRLSAVAVTYCSVAQDFPGSNLNLLTNNSGTPKDHDSPENGADSFESSDSLLQSWNSQSSLLDVQRVPSFESFEDDCAQSLCLNKPTMSFKDYIQERSDPVEQGKPVIPAAVLAGFTGSGPIQLWQFLLELLSDKSCQSFISWTGDGWEFKLADPDEVARRWGKRKNKPKMNYEKLSRGLRYYYDKNIIHKTSGKRYVYRFVCDLQNLLGFTPEELHAILGVQPDTED
